Data reported in PubChem BioAssay AID330 (DTP/NCI, 2004).
The list shows only some results of the screen, not a fair sample: it gathers tests that were run many times, whatever their T/C, doses with no T/C, and many T/C values between a quarter and a half above the control. Other doses and runs of a compound stand elsewhere. T/C is the treated group as % of the vehicle group. Some doses have a count of surviving animals in place of a T/C: the source files T/C as zero there, which appears to mark a toxic dose or a test without result, not a measured value. Some survivor counts are full or nearly so, which does not show that the dose was tolerated: the source hardly ever lists a survival T/C far under the control, and the zero likely stands for such cases as well. Counts of survivors are from the toxicity check (mostly the fifth day) where no day follows; animals may have died later. Schedules are NCI's codes, taken here to give the interval after Q, in days (D) or hours (H), and the number of doses after X. Some entries hold several experiments; their values stand side by side, smallest first. Where survival is the endpoint, the PubChem record calls one and a half times the control and up active, and a quarter to a half above the control has no call in these data; cut-offs in other NCI protocols can differ. Some T/C values are followed by the survivors on the day toxicity was checked, most often the fifth; without a count, all were alive then.

Tested on: P388 leukemia ip, CD2F1 mice, survival T/C
Test: NCI In Vivo Anticancer Drug Screen. Data for tumor model P388 Leukemia (intraperitoneal) in CD2F1 (CDF1) mice
Conditions: T/C endpoint: median survival time, higher T/C = longer survival
[1] = dose: 100.0 mg/kg/injection, schedule: Q01DX009 (ip), vehicle: Klucel (hydroxypropylcellulose) (HPC)
[2] = dose: 200.0 mg/kg/injection, schedule: Q01DX009 (ip), vehicle: Klucel (hydroxypropylcellulose) (HPC)
[3] = dose: 200.0 mg/kg/injection, schedule: Q01DX005 (ip), vehicle: saline with Tween-80
[4] = dose: 200.0 mg/kg/injection, schedule: Q01DX005 (ip), vehicle: Klucel (hydroxypropylcellulose) (HPC)
[5] = dose: 100.0 mg/kg/injection, schedule: Q01DX009 (ip), vehicle: saline with Tween-80
[6] = dose: 200.0 mg/kg/injection, schedule: Q01DX009 (ip), vehicle: saline
[7] = dose: 240.0 mg/kg/injection, schedule: Q01DX005 (ip), vehicle: saline with Tween-80
[8] = dose: 50.0 mg/kg/injection, schedule: Q01DX009 (ip), vehicle: Klucel (hydroxypropylcellulose) (HPC)

## CSc1nc(COC(=O)NC(C)C)c(COC(=O)NC(C)C)n1-c1ccccc1
dose: 50.0 mg/kg/injection, schedule: Q01DX005 (ip), vehicle: Klucel + Tween-80
  survivor count: 6 of 6
dose: 100.0 mg/kg/injection, schedule: Q01DX005 (ip), vehicle: Klucel + Tween-80
  survivor count: 6 of 6

## Cc1cc(NC(=O)C(=O)O)cc2c(=O)cc(C(=O)O)[nH]c12
[1]
  survivor count: 0 of 6 and 1 of 6
[2]
  survivor count: 0 of 6

## CCN(CCO)CC1CCCC2CCCCC21 (centres undefined)
dose: 240.0 mg/kg/injection, schedule: Q01DX005 (ip), vehicle: saline
  survivor count: 0 of 6

## COc1cc(Oc2c(C)c(Cl)c(OC)c(Cl)c2OC)c2c(c1Cl)COC2=O
dose: 60.0 mg/kg/injection, schedule: Q01DX005 (ip), vehicle: Klucel (hydroxypropylcellulose) (HPC)
  survivor count: 6 of 6

## O=C(/C=C/c1ccco1)C1C(=O)CCC1=O
dose: 200.0 mg/kg/injection, schedule: Q01DX005 (ip), vehicle: Klucel + Tween-80
  survivor count: 4 of 6

## O=C1c2ccccc2C(=O)c2c1cc1c(O)c(CN3CCCC3)ccc1c2O
[3]
  survivor count: 6 of 6

## O=S1(=O)CCCO1
dose: 400.0 mg/kg/injection, schedule: Q04DX003 (ip), vehicle: saline
  survivor count: 5 of 6

## COc1ccc(C)cc1N=NC1C(=O)N(C(=O)CC(=O)Nc2ccccc2Cl)N=C1C (centres undefined)
[4]
  survivor count: 6 of 6

## [N-]=[N+]=NC1=CC(=O)C(c2ccccc2)=CC1=O
[5]
  survivor count: 5 of 6

## CCOC(=O)NNS(=O)(=O)CCC(N)C(=O)O (centres undefined)
dose: 100.0 mg/kg/injection, schedule: Q01DX009 (ip), vehicle: water
  T/C: 130 % of control

## CCCCCCOc1ccc(OCCCC[N+]2(CC)CCCCC2)cc1
dose: 50.0 mg/kg/injection, schedule: Q01DX009 (ip), vehicle: saline
  survivor count: 0 of 6
dose: 100.0 mg/kg/injection, schedule: Q01DX009 (ip), vehicle: saline
  survivor count: 0 of 6
[6]
  survivor count: 0 of 6

## N#Cc1c(N)[nH]c2ccc(Sc3ccccc3)cc12
dose: 60.0 mg/kg/injection, schedule: Q01DX005 (ip), vehicle: saline with Tween-80
  T/C: 136 [5 of 6 alive] and 145 % of control
dose: 120.0 mg/kg/injection, schedule: Q01DX005 (ip), vehicle: saline with Tween-80
  survivor count: 1 of 6
[7]
  survivor count: 0 of 6

## CC(C)[C@@H]1CC[C@@H](C)C[C@H]1N
dose: 100.0 mg/kg/injection, schedule: Q01DX005 (ip), vehicle: saline with Tween-80
  survivor count: 1 of 5
[3]
  survivor count: 0 of 5

## CC1C/C(=C2/NC3CCCCC3NC2=O)C(=O)O1 (centres undefined)
dose: 50.0 mg/kg/injection, schedule: Q01DX009 (ip), vehicle: saline with Tween-80
  survivor count: 3 of 6
[5]
  survivor count: 2 of 6
dose: 200.0 mg/kg/injection, schedule: Q01DX009 (ip), vehicle: saline with Tween-80
  survivor count: 0 of 6

## COc1c(OC(C)=O)c(OC(C)=O)cc2c1-c1ccc(SC)c(=O)cc1C(NC(C)=O)CC2 (centres undefined)
dose: 1.25 mg/kg/injection, schedule: Q01DX009 (ip), vehicle: Klucel (hydroxypropylcellulose) (HPC)
  T/C: 138 % of control
dose: 2.5 mg/kg/injection, schedule: Q01DX009 (ip), vehicle: Klucel (hydroxypropylcellulose) (HPC)
  T/C: 133 and 137 % of control
dose: 5.0 mg/kg/injection, schedule: Q01DX009 (ip), vehicle: Klucel (hydroxypropylcellulose) (HPC)
  T/C: 149 % of control

## O=C1c2ccccc2C(=O)C1(Br)c1ccccc1
dose: 400.0 mg/kg/injection, schedule: Q04DX002 (ip), vehicle: saline with Tween-80
  survivor count: 0 of 6

## S=C1SCN(Cc2ccccc2)CN1Cc1ccccc1
dose: 400.0 mg/kg/injection, schedule: Q01DX009 (ip), vehicle: saline with Tween-80
  survivor count: 6 of 6

## CC1=CC(=O)C(/C=C(\C)[N+](=O)[O-])=CC1=O
[8]
  survivor count: 0 of 6
[1]
  survivor count: 0 of 6
[2]
  survivor count: 0 of 6

## OCC1OC(n2cnc3c2NC=NC[C@H]3O)CC1O (some centres undefined)
dose: 8.0 mg/kg/injection, schedule: Q01DX009 (ip), vehicle: water
  survivor count: 6 of 6
dose: 16.0 mg/kg/injection, schedule: Q01DX009 (ip), vehicle: water
  survivor count: 5 of 6
dose: 32.0 mg/kg/injection, schedule: Q01DX009 (ip), vehicle: water
  survivor count: 4 of 6
dose: 64.0 mg/kg/injection, schedule: Q01DX009 (ip), vehicle: water
  survivor count: 1 of 6

## N/C(Cc1noc2ccc(F)cc12)=N\O
[6]
  survivor count: 0 of 6

## O=C(c1ccccc1)C1CCCN(CCc2ccccc2)C1 (centres undefined)
[3]
  survivor count: 0 of 6

## CN=NNc1ccc(C)cc1
dose: 100.0 mg/kg/injection, schedule: Q01DX009 (ip), vehicle: distilled water + Tween-80
  survivor count: 4 of 6
dose: 200.0 mg/kg/injection, schedule: Q01DX009 (ip), vehicle: distilled water + Tween-80
  survivor count: 1 of 6

## COc1cccc2c1C(=O)c1c(O)c3c(c(O)c1C2=O)C[C@@](O)(C(=O)CO)C[C@@H]3OC1CC(NCc2ccccc2)C(O)C(C)O1 (some centres undefined)
dose: 0.2 mg/kg/injection, schedule: Q01DX009 (ip), vehicle: water
  T/C: 141 % of control
dose: 0.39 mg/kg/injection, schedule: Q01DX009 (ip), vehicle: water
  T/C: 131 % of control
dose: 0.78 mg/kg/injection, schedule: Q01DX009 (ip), vehicle: water
  T/C: 136 % of control
dose: 12.5 mg/kg/injection, schedule: Q01DX009 (ip), vehicle: water
  survivor count: 6 of 6

## COc1ccc(-c2cc(-c3ccc(OC)cc3OC)[n+](C)c(-c3ccc(OC)cc3OC)c2)cc1
dose: 3.12 mg/kg/injection, schedule: Q01DX009 (ip), vehicle: saline with Tween-80
  survivor count: 3 of 6 and 6 of 6
dose: 6.25 mg/kg/injection, schedule: Q01DX009 (ip), vehicle: saline with Tween-80
  survivor count: 3 of 6
dose: 12.5 mg/kg/injection, schedule: Q01DX009 (ip), vehicle: saline with Tween-80
  survivor count: 0 of 6

## OC(CN(Cc1nc2ccccc2[nH]1)Cc1nc2ccccc2[nH]1)CN(Cc1nc2ccccc2[nH]1)Cc1nc2ccccc2[nH]1
[7]
  survivor count: 5 of 6

## N=C(N)c1ccc2[nH]c(/C=C/c3cc4cc(C(=N)N)ccc4o3)cc2c1
dose: 12.5 mg/kg/injection, schedule: Q04DX003 (ip), vehicle: suspension in saline
  T/C: 143 % of control
dose: 100.0 mg/kg/injection, schedule: Q04DX003 (ip), vehicle: suspension in saline
  survivor count: 5 of 6
dose: 200.0 mg/kg/injection, schedule: Q04DX003 (ip), vehicle: suspension in saline
  survivor count: 0 of 6
dose: 400.0 mg/kg/injection, schedule: Q04DX003 (ip), vehicle: suspension in saline
  survivor count: 0 of 6

## CCOC(=O)c1cnc2ccccn2c1=O
[6]
  survivor count: 6 of 6
dose: 400.0 mg/kg/injection, schedule: Q01DX009 (ip), vehicle: saline
  survivor count: 5 of 6

## COc1cc(O)c2c(c1)C(=O)c1cc3c(c(O)c1C2=O)C(O)C(OC)C(C)(O)C3=O (centres undefined)
dose: 25.0 mg/kg/injection, schedule: Q01DX009 (ip), vehicle: Klucel (hydroxypropylcellulose) (HPC)
  survivor count: 6 of 6
[8]
  survivor count: 5 of 6

## CC(=O)NNc1ccc(Cl)cc1[N+](=O)[O-]
[2]
  survivor count: 5 of 6

## CCN(CC)CCN1C(=O)c2cccc3cc([N+](=O)[O-])cc(c23)C1=O
dose: 50.0 mg/kg/injection, schedule: Q01DX005 (ip), vehicle: Klucel (hydroxypropylcellulose) (HPC)
  T/C: 141 % of control
dose: 100.0 mg/kg/injection, schedule: Q01DX005 (ip), vehicle: Klucel (hydroxypropylcellulose) (HPC)
  survivor count: 5 of 6
[4]
  survivor count: 0 of 6
